In PubChem BioAssay AID248 (DTP/NCI, 2004):
The list is a part of this screen's results and no random one: it is rich in T/C values a quarter to a half above the control, in often repeated tests (any T/C) and in doses without a T/C. Other doses and runs of a compound stand elsewhere. T/C is the treated group as % of the vehicle group. Some entries give survivors of the animals treated and no T/C: the source files T/C as zero there, which appears to mark a toxic dose or a test without result, not a measured value. Some survivor counts are full or nearly so, which does not show that the dose was tolerated: survival well below the control is almost never listed, so the zero probably covers shortened survival too. Survivors were counted at the toxicity check, usually on the fifth day, unless a day is given; later deaths do not show. Schedules are NCI's codes, read here as Q, the interval in days (D) or hours (H), X, the number of doses.

Tested on: L1210 leukemia ip in BDF1 mice, survival T/C
Assay: NCI In Vivo Anticancer Drug Screen. Data for tumor model L1210 Leukemia (intraperitoneal) in B6D2F1 (BDF1) mice
Details: T/C endpoint: mean survival time, higher T/C = longer survival

SMILES: Cc1ccccc1C[P+](c1ccccc1)(c1ccccc1)c1ccccc1
- survivor count (dose: 25.0 mg/kg/injection, schedule: Q01DX009 (ip), vehicle: acetone): 4 of 6
- survivor count (dose: 50.0 mg/kg/injection, schedule: Q01DX009 (ip), vehicle: acetone): 0 of 6
- survivor count (dose: 100.0 mg/kg/injection, schedule: Q04DX003 (ip), vehicle: acetone): 0 of 6
- survivor count (dose: 200.0 mg/kg/injection, schedule: Q04DX003 (ip), vehicle: acetone): 0 of 6
- survivor count (dose: 400.0 mg/kg/injection, schedule: Q04DX003 (ip), vehicle: acetone): 0 of 6

SMILES: NC(=O)c1ccc[n+](Cc2ccccc2)c1
- survivor count (dose: 400.0 mg/kg/injection, schedule: Q01DX009 (ip), vehicle: saline): 0 of 6

SMILES: Cc1cc(Cl)ccc1NC(=O)Nc1ccc(Cl)c(Cl)c1
- survivor count (dose: 100.0 mg/kg/injection, schedule: Q04DX003 (ip), vehicle: Klucel (hydroxypropylcellulose) (HPC)): 6 of 6
- survivor count (dose: 200.0 mg/kg/injection, schedule: Q04DX003 (ip), vehicle: Klucel (hydroxypropylcellulose) (HPC)): 6 of 6

SMILES: N=C(N)CSSCC(=N)N
- survivor count (dose: 100.0 mg/kg/injection, schedule: Q04DX003 (ip), vehicle: carboxymethylcellulose (CMC)): 0 of 6
- survivor count (dose: 200.0 mg/kg/injection, schedule: Q04DX003 (ip), vehicle: carboxymethylcellulose (CMC)): 0 of 6
- survivor count (dose: 400.0 mg/kg/injection, schedule: Q04DX003 (ip), vehicle: carboxymethylcellulose (CMC)): 0 of 6
